Results are given in words; binding and its absence hold for the method and conditions named. Binding seen in cells or lysates may run through a third protein. Some entries that bind do so weakly or less than the wild type.

Amino acid sequences for entries named in this document (tags omitted).
UniProt Q96LD4: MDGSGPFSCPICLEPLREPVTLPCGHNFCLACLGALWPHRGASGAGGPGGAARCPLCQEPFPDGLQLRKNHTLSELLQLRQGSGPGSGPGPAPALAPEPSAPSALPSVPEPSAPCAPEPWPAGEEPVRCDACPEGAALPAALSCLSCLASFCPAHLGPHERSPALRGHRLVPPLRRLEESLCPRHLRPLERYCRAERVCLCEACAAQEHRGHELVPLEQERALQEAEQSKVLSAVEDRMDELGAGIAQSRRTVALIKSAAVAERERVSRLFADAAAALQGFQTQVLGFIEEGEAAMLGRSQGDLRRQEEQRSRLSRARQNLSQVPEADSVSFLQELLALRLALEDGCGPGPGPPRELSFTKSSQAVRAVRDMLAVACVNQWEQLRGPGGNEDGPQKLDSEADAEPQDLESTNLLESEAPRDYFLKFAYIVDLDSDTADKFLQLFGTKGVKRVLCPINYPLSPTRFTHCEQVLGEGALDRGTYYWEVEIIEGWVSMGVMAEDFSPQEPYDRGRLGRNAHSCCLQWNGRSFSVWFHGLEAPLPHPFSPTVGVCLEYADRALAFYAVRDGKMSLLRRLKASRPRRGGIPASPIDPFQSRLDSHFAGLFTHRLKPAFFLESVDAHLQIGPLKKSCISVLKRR
UniProt Q14145: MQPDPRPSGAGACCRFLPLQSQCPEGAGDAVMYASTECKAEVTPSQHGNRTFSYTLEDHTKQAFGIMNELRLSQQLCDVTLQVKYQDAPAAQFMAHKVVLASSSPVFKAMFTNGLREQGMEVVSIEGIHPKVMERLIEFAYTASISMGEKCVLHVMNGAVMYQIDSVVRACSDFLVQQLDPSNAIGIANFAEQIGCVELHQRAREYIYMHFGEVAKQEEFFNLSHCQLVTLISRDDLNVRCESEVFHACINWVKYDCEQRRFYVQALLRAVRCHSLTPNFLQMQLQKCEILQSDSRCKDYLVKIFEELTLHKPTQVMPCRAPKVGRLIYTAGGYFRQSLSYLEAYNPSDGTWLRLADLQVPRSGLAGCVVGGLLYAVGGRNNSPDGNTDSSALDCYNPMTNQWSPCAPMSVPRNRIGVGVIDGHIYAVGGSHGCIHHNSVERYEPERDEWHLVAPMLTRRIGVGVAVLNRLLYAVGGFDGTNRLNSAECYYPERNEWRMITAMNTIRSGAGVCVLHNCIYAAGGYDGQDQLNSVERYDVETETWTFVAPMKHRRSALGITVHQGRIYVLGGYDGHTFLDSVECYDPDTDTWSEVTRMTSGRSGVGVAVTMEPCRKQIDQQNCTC

The values below come from article doi:10.1101/2024.10.08.616723.

This assay addresses TRIM47-myc-Flag (human TRIM47, Myc-DDK-tagged) (human) (UniProt Q96LD4). Put plainly: co-IP.

Take KEAP1-Flag (from UniProt Q14145 1-624): the binding result is “binds”.
